# Results of single-concentration screens

Amino acid sequences for entries named in this document (tags omitted). Residues count along the entry.
UniProt P9WPC5, whole entry: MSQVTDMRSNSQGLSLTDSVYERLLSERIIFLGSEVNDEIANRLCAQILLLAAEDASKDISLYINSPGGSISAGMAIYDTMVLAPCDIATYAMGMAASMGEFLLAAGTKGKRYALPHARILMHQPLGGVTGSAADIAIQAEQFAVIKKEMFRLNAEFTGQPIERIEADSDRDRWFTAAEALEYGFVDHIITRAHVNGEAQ
UniProt P9WPC3, whole entry partner: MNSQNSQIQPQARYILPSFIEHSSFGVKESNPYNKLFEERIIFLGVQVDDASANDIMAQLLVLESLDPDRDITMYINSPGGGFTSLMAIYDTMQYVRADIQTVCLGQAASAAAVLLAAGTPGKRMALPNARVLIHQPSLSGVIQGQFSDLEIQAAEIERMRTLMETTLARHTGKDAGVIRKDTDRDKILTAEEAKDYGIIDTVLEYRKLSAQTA
UniProt P9WNZ1, whole entry: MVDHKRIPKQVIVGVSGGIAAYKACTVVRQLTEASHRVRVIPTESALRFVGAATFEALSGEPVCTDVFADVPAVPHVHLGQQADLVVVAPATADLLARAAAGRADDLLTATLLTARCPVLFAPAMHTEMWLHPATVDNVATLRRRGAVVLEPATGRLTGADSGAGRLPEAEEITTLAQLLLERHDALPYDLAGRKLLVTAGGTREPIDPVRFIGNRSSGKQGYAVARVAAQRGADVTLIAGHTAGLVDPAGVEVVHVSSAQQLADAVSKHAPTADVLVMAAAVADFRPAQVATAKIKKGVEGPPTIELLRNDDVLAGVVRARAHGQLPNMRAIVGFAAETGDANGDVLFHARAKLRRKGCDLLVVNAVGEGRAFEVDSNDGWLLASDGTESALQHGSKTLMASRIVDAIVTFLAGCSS
UniProt Q8IDJ8, 1-583: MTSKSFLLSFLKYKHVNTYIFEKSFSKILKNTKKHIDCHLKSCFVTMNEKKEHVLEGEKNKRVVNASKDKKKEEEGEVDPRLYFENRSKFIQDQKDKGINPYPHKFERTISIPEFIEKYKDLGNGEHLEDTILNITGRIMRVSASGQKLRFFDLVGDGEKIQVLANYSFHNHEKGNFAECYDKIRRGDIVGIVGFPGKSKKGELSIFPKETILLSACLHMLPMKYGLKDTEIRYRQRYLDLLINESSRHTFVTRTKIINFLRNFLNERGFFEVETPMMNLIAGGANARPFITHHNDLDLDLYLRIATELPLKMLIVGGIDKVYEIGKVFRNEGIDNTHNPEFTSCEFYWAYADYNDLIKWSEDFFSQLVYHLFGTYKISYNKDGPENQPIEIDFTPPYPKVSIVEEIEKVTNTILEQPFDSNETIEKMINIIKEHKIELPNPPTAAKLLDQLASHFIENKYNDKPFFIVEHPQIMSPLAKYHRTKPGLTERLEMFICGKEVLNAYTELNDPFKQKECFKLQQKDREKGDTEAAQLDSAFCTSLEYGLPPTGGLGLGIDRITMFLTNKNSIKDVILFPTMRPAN

Measurements from “University of Dundee, Small-Polar-MMV Screening Library” (2021), ChEMBL document CHEMBL3988442.

Each number is a percent effect as filed.
The controls that fix the scale are not given in the record; negative values are as filed.
Compounds were drawn at random from those tested, without regard to their results.
A dash means the value is not listed here; it may have been measured.

A: 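ClpP1P2, Mycobacterium tuberculosis (UniProt P9WPC5 and UniProt P9WPC3). Protease assay of ClpP1P2, read by the AMC dye that it sets free. Compounds at 50 µM. Higher reads as stronger inhibition, judged from the few compounds that gave an IC50. Most other retested compounds had strongly negative values. About 69,000 compounds were tested under these conditions; 0.015% (about 10) showed 50% or more at least once.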
B: 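Enzyme assay of CoaBC with a phosphate dye (Biomol Green) read at 650 nm. Target: Coenzyme A biosynthesis protein CoaBC, Mycobacterium tuberculosis (UniProt P9WNZ1). Concentration: 30 µM. Higher reads as stronger inhibition, judged from the few compounds that gave an IC50. Most strong results did not repeat in a second test. About 67,000 compounds were tested under these conditions; 0.06% (about 40) showed 50% or more at least once.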
C: 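Lysine-tRNA ligase, Plasmodium falciparum 3D7 (UniProt Q8IDJ8). Enzyme assay of the cytosolic lysyl-tRNA synthetase in 384-well plates, read by luminescence. Tested at 30 µM. Direction is inferred from only a few compounds that gave an IC50; most scored high, so higher reads as stronger inhibition. Of about 69,000 compounds tested this way, about 49 (0.071%) reached 50% or more in at least one test.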

| # | Compound | A | B | C |
|---|---|---|---|---|
| 1 | `CC(=O)N1CCN(C(C)C)CC(COc2ccccc2)C1` (configuration not stated) | -3.876 | 1.225 | 4.266 |
| 2 | `O=C(O)c1ccc2[nH]cc(CN3CCCC3)c2c1` | -14.75 | 1.129 | 7.976 |
| 3 | `COc1cc(NCCNC(=O)c2cc[nH]c2C)cc(OC)c1` | -10.01 | 1.229 | -7.275 |
| 4 | `CCN(CC)CCNC(=O)c1ccc(-n2ccc3ccccc32)s1` | 11.12 | 6.859 | 2.547 |
| 5 | `O=C(CCc1ccccc1)N1CCn2cc(Cn3cncn3)nc2C1` | -12.04 | 6.717 | -0.2853 |
| 6 | `CNS(=O)(=O)c1cccc(CNc2ncccn2)c1` | -31.73 | -2.212 | -0.2047 |
| 7 | `O=C(C1CC1)N1CCC2(CC1)CNc1ccc(F)cc12` | 4.747 | -22.5 | 8.393 |
| 8 | `CN(CCc1ccccc1)Cc1nc(-c2cnccn2)no1` | -7.094 | -4.733 | 1.499 |
| 9 | `CC(C)NC(=O)N(C)C1CCN(c2ccccc2Cl)C1=O` (configuration not stated) | 7.07 | 5.696 | 3.636 |
| 10 | `O=C(Nc1ccc(-n2ccc(C(=O)O)n2)cc1)c1ccccc1` | -6.181 | 5.368 | 9.989 |
| 11 | `CCc1cnc(N2CCC3(CCN(CC)C3=O)CC2)nc1` | 7.235 | - | 12.5 |
| 12 | `CCC1=N[C@@]2(CC[C@@H]3CN(CC4CC4)C[C@@H]32)C(=O)N1` | 12.52 | -3.333 | 2.35 |
| 13 | `NC(=O)CSc1nccc(-c2ccc3c(c2)OCO3)n1` | 0.2579 | -0.6135 | 2.402 |
| 14 | `Cn1ncc(NC(=O)Cn2ccc(-c3cccc(F)c3)n2)n1` | -3.458 | 0 | 1.678 |
| 15 | `O=C(NC1CCCCC1)N1CCn2c(nnc2C2CCCN2)C1` (configuration not stated) | -1.694 | 2.632 | -0.1167 |
| 16 | `CSCCC(C)NC(=O)CCN1C(=O)CCc2cc(F)ccc21` (configuration not stated) | 0.7372 | 8.855 | -1.508 |
| 17 | `Cc1nnc(N2CC[C@@H](OCC3CC3)[C@@H](Cc3ccccc3)C2)s1` | -43.51 | 9.355 | 5 |
| 18 | `CCC(=O)N1CCCC1c1csc(Nc2cnccn2)n1` (configuration not stated) | -8.914 | 3.883 | 3.317 |
| 19 | `Cc1ccc(C)c(OC2CCN(C(=O)c3ccc(O)nc3)CC2)c1` | 7.776 | 0 | 5.542 |
| 20 | `O=C(NCC1CCN(Cc2cc3ccccc3[nH]2)C1)C1CCCCC1` (configuration not stated) | -21.56 | -0.2545 | 2.475 |
| 21 | `O=C(NCC1CCOC1)c1cc(-c2cccc(Cl)c2)[nH]n1` (configuration not stated) | 14.96 | 2.334 | 3.918 |
| 22 | `COc1ccc(C(=O)C2CCCN(c3cc(C#N)ccn3)C2)cc1F` (configuration not stated) | -19.8 | 5.302 | 0.4132 |
| 23 | `COc1ccc(C[C@H]2CN(Cc3ccoc3)CC[C@H]2OC)cc1` | -2.569 | 4.242 | 3.368 |
| 24 | `CC(=O)NCC(=O)N1CCC2(CC1)NC(=O)CC2c1cccnc1` (configuration not stated) | -7.728 | -1.015 | -4.83 |
| 25 | `COc1ccc(C)cc1C(=O)N1CCCC(n2nc(C)nc2C)C1` (configuration not stated) | -4.939 | 1.837 | 1.592 |
| 26 | `c1cncc(-c2noc(CN3CCCCC3Cn3cccn3)n2)c1` (configuration not stated) | -19.32 | 4.178 | -0.1945 |
| 27 | `CN(C)c1ccc(C(=O)N2CCCC2c2ccc(Cl)cc2)nn1` (configuration not stated) | -5.713 | 3.537 | -0.7666 |
| 28 | `Cc1cccc(CN2CCc3ncnc(C)c3CC2)n1` | 4.388 | -10.11 | -3.945 |
| 29 | `Cc1cc2nc(C(C)C)cc(NCCNc3ncccc3C)n2n1` | 6.05 | -4.578 | -4.21 |
| 30 | `CS(=O)(=O)N1C[C@@H]2CC[C@H](C1)N(CCC(=O)NCc1ccco1)C2` | -18.43 | 0.1255 | 8.437 |
| 31 | `CCOCCCNC(=O)c1nn(CC)cc1Cl` | 17.94 | 6.057 | 1.458 |
| 32 | `CC(C)(CO)Nc1cc(-c2cn[nH]c2)ncn1` | 2.568 | -0.3614 | 1.221 |
| 33 | `OC1(CN2CCOC(Cn3cncn3)C2)CCCCC1` (configuration not stated) | 0.2999 | -2.679 | -0.5201 |
| 34 | `Cc1noc(C)c1CC(=O)OCC(=O)N1CCc2sccc2C1` | 0.02625 | 4.042 | 9.032 |
| 35 | `CC1(c2ccc(Br)cc2)CC(=O)N(CCC(N)=O)C1=O` (configuration not stated) | -16.65 | 1.648 | 3.961 |
| 36 | `CN(Cc1ccccc1)c1ccc(C(F)(F)F)cn1` | 11.34 | 2.621 | 3.093 |
| 37 | `COCCN(Cc1sccc1C)C(=O)COc1ccccc1O` | -13.96 | 2.584 | 2.702 |
| 38 | `CC(C)COCC(NC(=O)c1ccccn1)c1ccco1` (configuration not stated) | 5.741 | 1.305 | -0.578 |
| 39 | `CNc1ncccc1C(=O)N1CCC2(CCN(C)C2)CC1` | 3.365 | - | 5.145 |
| 40 | `CCOc1cccc(COC(=O)c2ccc(F)cn2)n1` | -6.979 | - | 1.739 |
| 41 | `Cc1ccc(C(=O)N2CCCn3nc(CCC(=O)O)cc3C2)cc1Cl` | -6.928 | -3.498 | 5.258 |
| 42 | `COCC(C)NC(=O)CN1CCC(C)CC1` (configuration not stated) | -13.79 | 2.152 | -0.4589 |
| 43 | `O=C(CN1CCN(C(=O)Cc2ccc3c(c2)OCCO3)CC1)NC1CC1` | 12.84 | -1.446 | -2.33 |
| 44 | `CC(C)c1ccc(OCC(=O)NS(=O)(=O)c2cccnc2)cc1` | -31.53 | 1.023 | -0.08005 |
| 45 | `Cc1cc(NC(=O)CNc2cccc(C(=O)N3CCCC(O)C3)c2)no1` (configuration not stated) | 11.07 | -2.689 | 3.122 |
| 46 | `CSCC1CCN(c2nc(N)ncc2C)CC1` | -32.3 | 1.118 | 1.212 |
| 47 | `Cc1cc(C)c2cc(CNCc3ccc(C)o3)c3nn(C)c(=O)n3c2c1` | -8.591 | 2.906 | 4.815 |
| 48 | `Cn1ccnc1CN1CCC2(CC1)CN(c1ccccc1)C(=O)CO2` | -1.449 | -6.526 | -4.01 |
| 49 | `c1cnn(CC2CCCN2Cc2noc(C3CC3)n2)c1` (configuration not stated) | 7.883 | 2.968 | 0.2358 |

For reference, 3 entries once more:

| Compound | A | B | C |
|---|---|---|---|
| `CC(=O)N1CCN(C(C)C)CC(COc2ccccc2)C1` (configuration not stated) | -3.876 | 1.225 | 4.266 |
| `Cc1nnc(N2CC[C@@H](OCC3CC3)[C@@H](Cc3ccccc3)C2)s1` | -43.51 | 9.355 | 5 |
| `CC(C)c1ccc(OCC(=O)NS(=O)(=O)c2cccnc2)cc1` | -31.53 | 1.023 | -0.08005 |